Results from patent US20120190707A1, “SELECTIVE INHIBITORS OF AKT AND METHODS OF USING SAME” (priority 2008, published 2012).
At least one compound was matched to its structure with a doubt left.

Test system: AKT
Experiment: pAKT473 and total AKT by western analysis in UACC 903 (PTEN-) cells
Format: cell-based, human
Conditions: 50 micro.M; UACC903 and 29-1 cells, FIG. 6A
Method: FIG. 6 describes the effect of BI-69A11 on phosphorylation and total levels of AKT in UACC 903 (PTEN−) cells. (A) UACC903 and the modified clone 29-1 (PTEN+) cells were exposed to 10 micro.M BI-69A11 and 50 micro.M LY294002 (a PI3K inhibitor) and the levels of pAKT473 and total AKT determined by western analysis. […] (SF=Serum Free). (B) BI-69A11 inhibits PRAS40 phosphorylation. UACC903 melanoma cells or 29-1 cells (PTEN+) were subjected to treatment with IGF-1 (20 ng/mL) and the level of PRAS40 phosphorylation was assessed. […] The cells were collected, lysed and levels of pPRAS40 and total PRAS40 determined by western analysis. (C) AKT association with HSP90 is inhibited by BI-69A11. Human melanoma cells were treated with BI-69A11 (10.micro.M) or DMSO control for 4 h, followed by protein preparation and immunoprecipitation using antibodies to pan-AKT. MG132 treatment, when used, initiated 1 h prior to treatment and lasted up to the preparation of proteins (total of 5 h). The right panel depicts analysis of total lysates. […]
Thus, we set to test the possibility that BI-69A11's ability to inhibit AKT activity may stem from inhibition of AKT protein expression (see data below). We thus assessed whether inhibition of AKT Ser473 phosphorylation coincides with its activity, namely the phosphorylation of known AKT substrates. […]

SMILES: O=c1cc(N2CCOCC2)oc2c(-c3ccccc3)cccc12 [LY294002, reference compound]
- levels of pAKT473: Reduced levels of pAKT473
